Source: PubChem BioAssay AID2685 (National Center for Advancing Translational Sciences (NCATS), 2010)
This is one part of the list. Shown are side measurements of this screen, not its main read-out; they come without a call. Compounds called inactive in the main read-out are mostly missing here. Potencies come from curve fits of mixed quality, noted in brackets.

Experiment: qHTS Assay for Lipid Storage Modulators in Drosophila S3 Cells;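 on cell number change: cells counted by Cell Tracker Red CMTPX staining in the red channel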
Conditions: BODIPY lipid droplet fluorescence, 18-24 h; for cell number change: measured here: cell count max response, cells fed with added oleic acid
Outline: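 Laser-scanning cytometry quantifies lipid droplet accumulation (500–530 nm total intensity; droplet/cell object ratio) in oleic acid-fed (400 uM added) Drosophila S3 cells treated with a concentration series. 20 uM Triacsin C defined 100% inhibition.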

[1] = measured here: lipid fluorescence (Fed channel) AC50, cells fed with added oleic acid
[2] = measured here: cell number channel AC50, cells fed with added oleic acid

SMILES | cell number change | AC50 [1] | AC50 [2]
CSc1cccc(NC(=O)COc2ccccc2C)c1 | 4.07% | – | –
CCOC(=O)C(C)Oc1cccc2c(=O)n(CC(=O)N3CCN(C(=O)OCC)CC3)ccc12 (centres undefined) | -6.59% | 2.91 µM [rising, full curve] | –
Cc1cc(C)cc(NC(=O)c2ccc(NC3=NC4CS(=O)(=O)CC4S3)cc2)c1 (centres undefined) | 13.3% | 6.51 µM [rising, single point] | –
CCN(CC)S(=O)(=O)c1ccc(NC(=S)NC(=O)C(C)C)cc1 | -16.2% | 0.00461 µM [falling, full curve, poor fit] | –
C=CCN=C1CCCc2c1[nH]c1ccc(C)cc21 | -38.5% | – | –
CC(C)CN(C(=O)COC(=O)Cc1ccc(Cl)cc1)c1c(N)n(Cc2ccccc2)c(=O)[nH]c1=O | -76.1% | – | 16.4 µM [falling, partial curve]
CCOC(=O)c1cnc(SCc2nc(N)nc(Nc3ccc(OC)cc3)n2)nc1N | 133% | – | 1.64 µM [rising, full curve]
O=C(NCCC1=CCCCC1)C(=O)NCc1ccccc1Cl | -0.919% | 6.51 µM [falling, single point] | –
COc1cc(OC)cc(C(=O)NCC(=O)NCCN2C(=O)S/C(=C\c3ccccc3Cl)C2=O)c1 | 22.5% | 2.31 µM [rising, partial curve] | –
CCC(C)(C(=O)NC1CCCC1)N(C(C)=O)c1ccc(C)cc1 (centres undefined) | -30% | 25.9 µM [falling, partial curve] | –
CCOc1ccc(S(=O)(=O)Nc2cccc(OC)c2)cc1 | 72.2% | – | 3.66 µM [rising, full curve]
O=C(NCc1cccs1)c1nc2c(nnn2Cc2ccccc2Cl)c(=O)[nH]1 | -15.4% | 8.2 µM [falling, partial curve] | –
O=C(COC(=O)CCC(=O)Nc1nccs1)NCc1ccco1 | -30.9% | – | 29.1 µM [falling, partial curve, poor fit]
CN(CC(=O)NCc1ccc(F)cc1)S(=O)(=O)c1ccc2c(c1)n(C)c(=O)c(=O)n2C | -7.31% | 6.51 µM [falling, single point] | –
Cc1ccoc1C(=O)NCc1occc1C(=O)O | -6.04% | 0.82 µM [falling, full curve] | 0.00517 µM [falling, full curve, poor fit]
O=C(Cc1ccc(Cl)cc1)NC(=S)Nc1ccccc1O | -1.38% | 14.6 µM [rising, partial curve] | –
Cc1cc(C)n2nc(C(=O)Nc3cccc(S(=O)(=O)N4CCOCC4)c3)nc2n1 | -32.1% | 0.116 µM [falling, full curve, poor fit] | 23.1 µM [falling, partial curve, poor fit]
COc1ccc(NC(=O)CSc2nnc(-c3cccc(O)c3)o2)cc1 | 3.04% | 6.51 µM [rising, single point] | –
O=S(=O)(c1ccccc1)N1CCCc2ccccc21 | 6.74% | 2.59 µM [rising, partial curve, poor fit] | –
O=C(Nc1ccccc1)C1COc2ccccc2O1 (centres undefined) | 13.6% | – | –
COc1ccccc1C(=O)Nc1ccc(OCC(=O)N2CCCCC2)cc1 | -1.23% | 23.1 µM [falling, partial curve, poor fit] | 6.51 µM [falling, single point]

SMILES | cell number change | AC50 [1] | AC50 [2]
Cn1c(N2CCCC2)nc2c1c(=O)n(Cc1ccc(Cl)cc1)c(=O)n2C | -29.8% | 20.6 µM [falling, single point] | –
Cn1c(COc2ccc(Cl)cc2)nnc1SCC(=O)NC1CC1 | 27.5% | 0.092 µM [falling, partial curve, poor fit] | –
COc1ccc(/C=c2/sc3n(c2=O)NC2(c4ccccc4)N(C)C(=O)N(C)C2(c2ccccc2)N=3)cc1 (centres undefined) | -24.2% | – | 0.0082 µM [falling, full curve, poor fit]
N#Cc1c(OCC(=O)c2ccccc2)nc2c(c1-c1ccco1)CCc1ccccc1-2 | – | 7.31 µM [falling, partial curve] | –
COc1ccc(O)c(/C=N/NC(=O)c2c(C)nnn2-c2nonc2N)c1 | 11.3% | – | 6.51 µM [rising, single point]
CC(=O)N/C(=C\c1ccccc1)C(=O)OCc1ccc(F)cc1 | -9.19% | 0.58 µM [rising, single point] | –
Cn1c(=O)[nH]c(=O)c2c1nc(N1CCCC1)n2CCSc1nc2ccccc2[nH]1 | 22.8% | 1.46 µM [falling, full curve] | 4.11 µM [rising, single point]
CC(Oc1ccccc1)C(=O)N1CCN=C1SCc1ccccc1 (centres undefined) | 14.8% | – | –
Cc1c(NC(=O)CSc2ccccn2)c(=O)n(-c2ccccc2)n1C | -9.17% | – | –
O=[n+]1c2c(n([O-])c3ccccc31)CCCC2 | -97% | 20.6 µM [falling, partial curve] | 29.1 µM [falling, partial curve]
O=C(Nc1ccc(Br)cc1)c1cccc(S(=O)(=O)Nc2cnc3ccccc3c2)c1 | -16.9% | 3.26 µM [rising, partial curve] | 2.59 µM [rising, partial curve]
COCCSc1nnc(NC(=O)Cc2ccc(OC)c(OC)c2)s1 | -6.33% | 1.64 µM [falling, partial curve, poor fit] | –
COc1ccc(NC(=O)CSc2nnc(-c3cccnc3)o2)c(OC)c1 | – | 0.103 µM [rising, full curve, poor fit] | –
Cc1nn(CCC#N)c(NC(=O)c2ccc(Cl)cc2Cl)c1P(=O)(Nc1ccc([N+](=O)[O-])cc1)N1CCOCC1 (centres undefined) | -1.87% | 20.6 µM [falling, partial curve] | 0.184 µM [falling, full curve, poor fit]
O=C(NC1(Cc2ccccc2)CCN(Cc2ccc(-c3ccccc3)cc2)C1=O)c1ccccc1 (centres undefined) | -0.776% | 0.116 µM [falling, single point] | –
O=C(Nc1ccc(F)cc1F)c1cc2n(n1)C(C(F)(F)F)C1CCCCC1N2 (centres undefined) | 2.07% | – | –
CCCOC(=O)C1C2C=CC3(CN(c4ccc(Cl)c(F)c4)C(=O)C13)O2 (centres undefined) | 55.7% | 6.51 µM [rising, single point] | 6.51 µM [rising, partial curve]
O=C(CCCc1c[nH]c2ccccc12)NCc1ccccc1F | 11.8% | 29.1 µM [falling, single point] | –
COc1ccc(C2=NS(=O)(=O)N(C)C(C(=O)NCc3ccccn3)=C2)cc1OC | 2.88% | 2.06 µM [rising, partial curve] | –
CC1CCN(C(=O)COC(=O)c2cc(=O)[nH]c3ccccc23)CC1 | 5.14% | – | 0.082 µM [falling, full curve, poor fit]
Cc1ccc(NC(=O)CCl)cc1S(=O)(=O)N1CCCCCC1 | -23.7% | 4.11 µM [falling, full curve, poor fit] | –

SMILES | cell number change | AC50 [1] | AC50 [2]
CC(=O)Nc1ncc(Cc2cccc(Cl)c2)s1 | 15% | 3.66 µM [rising, single point] | –
CN(C)S(=O)(=O)c1ccc(NC(=O)CSc2nc3ccccc3n2-c2ccccc2)cc1 | -11.4% | 2.31 µM [rising, single point] | –
CNC(=O)N(O)C1N(C)C(=O)N(Cc2ccccc2)C1(C)C (centres undefined) | -7.97% | 0.103 µM [falling, full curve, poor fit] | –
COC(=O)c1ccc(C(=O)OC)c(NC(=S)N2CCN(c3cccc(Cl)c3)CC2)c1 | 25.2% | 3.66 µM [falling, single point] | –
Clc1nssc1=Nc1ccc(Br)cc1 | -70.5% | 18.4 µM [falling, single point] | 23.1 µM [falling, single point]
COc1ccc2oc(C)c(NC(C)=O)c2c1 | 9.72% | – | –
Cc1cc(N2CCCC2=O)ccc1S(=O)(=O)Nc1c(C)nn(C)c1C | 4.24% | – | –
Cc1ccccc1C(=NCCCN(C)C)c1ccccc1C | – | 0.13 µM [falling, full curve, poor fit] | –
COc1ccc(Cl)cc1-c1nc(SCC(=O)NC2CC2)n[nH]1 | 26.7% | 6.51 µM [rising, partial curve, poor fit] | –
c1ccc(-n2ncc3c(N4CCN(c5ccccn5)CC4)nc(N4CCOCC4)nc32)cc1 | 12.3% | 0.116 µM [rising, full curve, poor fit] | –
CCOc1ccc(NC(=O)C2CC(=O)N=C(N)S2)cc1 (centres undefined) | 31.9% | – | –
CN(C(=O)CSc1ncnc2sc(-c3ccccc3)cc12)C1CCS(=O)(=O)C1 (centres undefined) | 113% | – | –
Cc1ccc(CN2CC[C@H]3C=CCc4cccc(c43)C2)cc1 | -32.7% | – | 4.61 µM [falling, single point]
CCOC(=O)N1CCC(Nc2cccc(SC)c2)CC1 | -19.6% | 29.1 µM [falling, single point] | –
CN1CCC2(CC1)Nc1nc(SCc3ccc(Cl)cc3)nn1C1=C2CN(C)CC1 | -6.06% | 23.1 µM [rising, single point] | –
Cc1ccc(C2=NC(C)(C)NC2=O)cc1 | -73.3% | – | 18.4 µM [falling, partial curve]
Cn1c(NC(=O)C2CCCO2)cc(=O)n(C)c1=O (centres undefined) | -4.86% | 0.82 µM [falling, full curve] | 0.651 µM [falling, full curve]
CCN(CC(=O)Nc1c(F)cccc1F)C(=O)C1COc2ccccc2O1 (centres undefined) | -5.76% | 1.84 µM [rising, partial curve] | –
O=C(CSC1=NC2(CCCCCC2)N=C1c1ccccc1)Nc1ccc2c(c1)OCCO2 | -23% | 9.2 µM [falling, partial curve, poor fit] | –

Full records, quoted from the list:
CCN(CC(=O)Nc1c(F)cccc1F)C(=O)C1COc2ccccc2O1 (centres undefined) is listed as cell number change: -5.76%; AC50 [1]: 1.84 µM [rising, partial curve]
CC(Oc1ccccc1)C(=O)N1CCN=C1SCc1ccccc1 (centres undefined) is listed as cell number change: 14.8%
COCCSc1nnc(NC(=O)Cc2ccc(OC)c(OC)c2)s1 is listed as cell number change: -6.33%; AC50 [1]: 1.64 µM [falling, partial curve, poor fit]
COc1ccc2oc(C)c(NC(C)=O)c2c1 is listed as cell number change: 9.72%
